Data as given in PubChem BioAssay AID1224828 (NIAID, 2016)
Purpose: 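Knock-downs that increase or decrease LPS-induced p65 nuclear translocation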 (primary screen). Cell system: mouse RAW264.7 G9 macrophage reporter cells (GFP-p65, Tnf promoter-mCherry). Reagents: siRNA pool against mouse genes, 100 nM. Timing: 2 days siRNA transfection, then 40 min LPS before fixation. Conditions: LPS (Salmonella minnesota R595) at 10 ng/ml. Measured: 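Microscopy ratio of nuclear to perinuclear-ring GFP-p65 signal, scaled to the plate median; gene score is the average of two replicate robust z-scores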. Direction: p65 translocation robust z-score: higher = more nuclear NF-kappaB p65 after LPS than the plate median; nuclear/cytoplasmic p65 ratio: higher = more nuclear NF-kappaB p65. Active means: 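Called active when z exceeds 3.3 or falls under -1.56 (median of Tlr4 controls), giving activity score of at least 50; no calls for control wells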. Calls: active = hit (p65 shift raised or lowered); inactive = no clear change.
The whole screen tested about 17,000 reagents; this is a part drawn at random. 762 of them (4.5%) were called active. 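Active calls include both raised and lowered p65 entry, mostly lowered; wells with fewer than 50 cells lack a z-score.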 Raw values vary from plate to plate and are shown uncorrected. The numbers tell different reagents against one gene apart.

no.	gene	pool no.	p65 translocation robust z-score	nuclear/cytoplasmic p65 ratio, rep 1	nuclear/cytoplasmic p65 ratio, rep 2	low cell count flag	Call
1	Ctse	1	1.07	1.71	1.44	enough cells to score	inactive
2	Clec4a3	1		1.06	1.33	fewer than 50 cells per well; well left out of scoring	inactive
3	Anapc7	1	0.51	1.68	1.71	enough cells to score	inactive
4	Evi5l	1	-0.83	1.55	1.28	enough cells to score	inactive
5	Vmn1r30	1		1.26	1.19	fewer than 50 cells per well; well left out of scoring	inactive
6	Ccna1	1	-1.46	1.17	1.19	enough cells to score	inactive
7	Ctr9	1	0.51	1.45	1.32	enough cells to score	inactive
8	Arglu1	1	-0.19	1.36	1.56	enough cells to score	inactive
9	Wasl	1	-0.63	1.44	1.49	enough cells to score	inactive
10	Mapk13	1	0.36	1.84	1.42	enough cells to score	inactive
11	Popdc1	1	0.4	1.55	1.51	enough cells to score	inactive
12	Dtd2	1		1.29	1.47	fewer than 50 cells per well; well left out of scoring	inactive
13	Mrps6	1	0.17	1.79	1.63	enough cells to score	inactive
14	Slc9a4	1	0.9	1.44	1.33	enough cells to score	inactive
15	Tube1	1	1.08	1.72	1.63	enough cells to score	inactive
16	Epcip	1		1.14	1.12	fewer than 50 cells per well; well left out of scoring	inactive
17	Ccr7	1		1.49	1.46	fewer than 50 cells per well; well left out of scoring	inactive
18	Fcer2a	1	-1.36	1.28	1.2	enough cells to score	inactive
19	Rhbdd2	1		1.17	1.03	fewer than 50 cells per well; well left out of scoring	inactive
20	Rhbdd2	2		1.17	1.18	fewer than 50 cells per well; well left out of scoring	inactive
21	Mep1b	1	0.83	1.52	1.48	enough cells to score	inactive
22	Dclre1c	1	-0.93	1.4	1.45	enough cells to score	inactive
23	Pafah2	1	-0.48	1.35	1.38	enough cells to score	inactive
24	Dnajc10	1	-0.1	1.44	1.36	enough cells to score	inactive

Entries above whose gene name starts with C or c (5):
gene	pool no.	p65 translocation robust z-score	nuclear/cytoplasmic p65 ratio, rep 1	nuclear/cytoplasmic p65 ratio, rep 2	low cell count flag	Call
Ctse	1	1.07	1.71	1.44	enough cells to score	inactive
Clec4a3	1		1.06	1.33	fewer than 50 cells per well; well left out of scoring	inactive
Ccna1	1	-1.46	1.17	1.19	enough cells to score	inactive
Ctr9	1	0.51	1.45	1.32	enough cells to score	inactive
Ccr7	1		1.49	1.46	fewer than 50 cells per well; well left out of scoring	inactive
